Taken from: PubChem BioAssay AID1259405 (NCATS, 2018)

Screen: 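Mouse-designed siRNAs used to find CHO productivity engineering targets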 (primary screen)
Cells: Chinese hamster CHO-K1 ovary cells with stable secreted eGFP expression
Knock-down reagent: single siRNA against mouse genes, 0.8 pmol siRNA per well (2 µl of 400 nM stock)
Duration: 3 days
Read-out: 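Per-well intracellular GFP measured by laser scanning cytometry, plus viability from ATP luminescence, each relative to plate median of non-targeting control wells, in %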
Reading the numbers: GFP, % of control: higher = more GFP per well, higher productivity; viability (ATP), % of control: higher = more viable cells (more ATP)
Rule for the call: 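a knock-down is called active if GFP reaches 120% or more of non-targeting control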
In all, the deposit lists about 50,000 reagents; shown is a random part of them. About 4,000 of them (8%) were called active. 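Mouse siRNA library applied to hamster cells; one well for each siRNA.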 Reagents against one gene are numbered here.

target gene	reagent	GFP, % of control	viability (ATP), % of control	Outcome
Defb2	1	65.6	74.5	inactive
Defb2	2	86.4	50.9	inactive
Defb2	3	83.5	68.6	inactive
Prr3	1	115	71.1	inactive
Prr3	2	58.9	63.7	inactive
Prr3	3	45.2	80.1	inactive
Mag	1	105	157	inactive
Mag	2	82	71.1	inactive
Btg1	1	84.4	60.1	inactive
Btg1	2	49.4	40.4	inactive
Btg1	3	104	126	inactive
Mid2	1	67	58.7	inactive
Mid2	2	83.3	63.3	inactive
Myo19	1	42.3	61.3	inactive
Myo19	2	44.9	53.7	inactive
Myo19	3	83.6	69	inactive
Rcbtb2	1	161	89.1	active
Rcbtb2	2	93.4	77	inactive
Rcbtb2	3	91.7	69.2	inactive
Hibadh	1	129	83.4	active
Hibadh	2	66	64.1	inactive
Hibadh	3	86.4	78.7	inactive
Adam5	1	87.8	91.3	inactive
Adam5	2	29.7	32.7	inactive
Adam5	3	71.2	82.5	inactive
Atoh1	1	79.3	90.5	inactive
Atoh1	2	239	167	active
Atoh1	3	82.1	118	inactive
Or6c69c	1	105	88.9	inactive
Or6c69c	2	69.1	65.2	inactive
Or6c69c	3	56.6	64.6	inactive
Rps6ka1	1	94.4	48	inactive
Rps6ka1	2	44	64.1	inactive
Rps6ka1	3	69.8	85.7	inactive

Not a retest: 4 of the entries above.
target gene	reagent	GFP, % of control	viability (ATP), % of control	Outcome
Mid2	1	67	58.7	inactive
Mid2	2	83.3	63.3	inactive
Myo19	1	42.3	61.3	inactive
Myo19	2	44.9	53.7	inactive
